{"source": "the supplement of paper PMC6445147", "parents": {"B1": {"name": "human tRNA-Pro; a variant is named by its letters at N, in order (parent)", "chain": "GGCTCGTTGGTCTAGNGGTATGATTCTCGCTTAGGGTGCGAGAGGTCCCGGGTTCNNATCCCGGACGAGCCC"}}, "note": "This is a noisy data set.", "data": [{"variants_of": "B1", "assay": "tRNA 5' processing efficiency (processed reads / all reads, maximum-likelihood estimate) (fraction); higher = more efficient 5' processing", "conditions": "HEK293T; construct: CMV Pol-II promoter ((+)CMV library, decapped)", "values": [{"variant": "GGCTCGTTGGTCTAGGCGAGTGATTCTCGCTTAGGGTGCGAGAGGTCCCGGGTTGTAATCCCGGACGAGCCC", "note": "[GTA G17C T19A A20G C55G]", "tRNA 5' processing efficiency": 0.25}, {"variant": "GGCTCGTTAGTCTAGGGCTATGATTCTCGCTTAGGGTGCGAGAGGTCCCGGGTCCTAATCCCGGACGAGCCC", "note": "[GTA G9A G18C T54C]", "tRNA 5' processing efficiency": 0.07}, {"variant": "GGCTCGTTGGTCTAGGTGTCTGATTCTCGCTTAGGGTGCGAGAGGTCCCGGGTTCTACTCCCGGACGAGCCC", "note": "[GTA G17T A20C A58C]", "tRNA 5' processing efficiency": 0.09}, {"variant": "GGCTCGTTGGTCTCGCTGTATGATTCTCGCTTAGGGTGCGAGAGGTCCCGGGTTCTAATCCCGGACGAGCCC", "note": "[CTA A14C G17T]", "tRNA 5' processing efficiency": 0.7}, {"variant": "GGCTCGTTGGTCTAGAGGTGTGATTCTCGCTTAGGGTGCGAGAGGTCCCGGGTTCTAACCCCGGACGAGCCC", "note": "[ATA A20G T59C]", "tRNA 5' processing efficiency": 0.2}, {"variant": "GGCTCGTTGGTCTTGGTGGATGATTCTCGCTTAGGGTGCGAGAGGTCCCGGGTTCTAATCCCGGACGAGCCC", "note": "[GTA A14T G17T T19G]", "tRNA 5' processing efficiency": 0.25}, {"variant": "GGCTCGTTGGTCTCGGGGTATGATTCTCGCTTAGGGTGCGAGAGGTCCCGGGTACTAACCCCGGACGAGCCC", "note": "[GTA A14C T54A T59C]", "tRNA 5' processing efficiency": 0.08}, {"variant": "GGCTCGTTGGTCTAGGGCCTTGATTCTCGCTTAGGGTGCGAGAGGTCCCGGGTTCTAATCCCGGACGAGCCC", "note": "[GTA G18C T19C A20T]", "tRNA 5' processing efficiency": 0.33}, {"variant": "GGCTCGTTGGTCTCGAGGTATGATTCTCGCTTAGGGTGCGAGAGGTCCCGGGATATAATCCCGGACGAGCCC", "note": "[ATA A14C T53A C55A]", "tRNA 5' processing efficiency": 0.71}, {"variant": "GGCTCGTTCGTCTGAGGGTATGATTCTCGCTTAGGGTGCGAGAGGTCCCGGGTTATAATCCCGGACGAGCCC", "note": "[GTA G9C A14G G15A C55A]", "tRNA 5' processing efficiency": 0.25}, {"variant": "GGCTCGTTGGTCTAGGGATATGATTCTCGCTTAGGGTGCGAGAGGTCCCGGGTTCTAAGCCCGGACGAGCCC", "note": "[GTA G18A T59G]", "tRNA 5' processing efficiency": 0.2}, {"variant": "GGCTCGTTGGTCTGTGGGTATGATTCTCGCTTAGGGTGCGAGAGGTCCCGGGTTATATTCCCGGACGAGCCC", "note": "[GTA A14G G15T C55A A58T]", "tRNA 5' processing efficiency": 0.38}, {"variant": "GGCTCGTTGGTCTAGGGGTATGATTCTCGCTTAGGGTGCGAGAGGTCCCGGGTTCGGCTCCCGGACGAGCCC", "note": "[GGG A58C]", "tRNA 5' processing efficiency": 0.77}, {"variant": "GGCTCGTTGGTCTAGGAGAATGATTCTCGCTTAGGGTGCGAGAGGTCCCGGGATCTATTCCCGGACGAGCCC", "note": "[GTA G17A T19A T53A A58T]", "tRNA 5' processing efficiency": 0.25}, {"variant": "GGCTCGTTGGTCTAGGTGGATGATTCTCGCTTAGGGTGCGAGAGGTCCCGGGTTCTATTCCCGGACGAGCCC", "note": "[GTA G17T T19G A58T]", "tRNA 5' processing efficiency": 0.07}, {"variant": "GGCTCGTTAGTCTAGAGGAATGATTCTCGCTTAGGGTGCGAGAGGTCCCGGGTTCGTATCCCGGACGAGCCC", "note": "[AGT G9A T19A]", "tRNA 5' processing efficiency": 0.25}, {"variant": "GGCTCGTTGGTCTGGGCGTATGATTCTCGCTTAGGGTGCGAGAGGTCCCGGGTCCGGATCCCGGACGAGCCC", "note": "[GGG A14G G17C T54C]", "tRNA 5' processing efficiency": 0.25}, {"variant": "GGCTCGTTTGTCTCAGAGTATGATTCTCGCTTAGGGTGCGAGAGGTCCCGGGTTCGTAACCCGGACGAGCCC", "note": "[GGT G9T A14C G15A G17A T59A]", "tRNA 5' processing efficiency": 0.33}, {"variant": "GGCTCGTTGGTCTTGGGTTATGATTCTCGCTTAGGGTGCGAGAGGTCCCGGGTTGTAATCCCGGACGAGCCC", "note": "[GTA A14T G18T C55G]", "tRNA 5' processing efficiency": 0.33}, {"variant": "GGCTCGTTGGTCTTGGGGTATGATTCTCGCTTAGGGTGCGAGAGGTCCCGGGCTCTATTCCCGGACGAGCCC", "note": "[GTA A14T T53C A58T]", "tRNA 5' processing efficiency": 0.6}, {"variant": "GGCTCGTTGGTCTAGGGGTTTGATTCTCGCTTAGGGTGCGAGAGGTCCCGGGTTCTAAGCCCGGACGAGCCC", "note": "[GTA A20T T59G]", "tRNA 5' processing efficiency": 0.33}, {"variant": "GGCTCGTTTGTCTTGGGGTATGATTCTCGCTTAGGGTGCGAGAGGTCCCGGGTTAGGATCCCGGACGAGCCC", "note": "[GGG G9T A14T C55A]", "tRNA 5' processing efficiency": 0.4}, {"variant": "GGCTCGTTGGTCTAAGGTTTTGATTCTCGCTTAGGGTGCGAGAGGTCCCGGGTTCTAAACCCGGACGAGCCC", "note": "[GTA G15A G18T A20T T59A]", "tRNA 5' processing efficiency": 0.25}, {"variant": "GGCTCGTTGGTCTAAGGGTATGATTCTCGCTTAGGGTGCGAGAGGTCCCGGGTTATAGTCCCGGACGAGCCC", "note": "[GTA G15A C55A A58G]", "tRNA 5' processing efficiency": 0.25}, {"variant": "GGCTCGTTAGTCTAGGGGCATGATTCTCGCTTAGGGTGCGAGAGGTCCCGGGTTGTAATCCCGGACGAGCCC", "note": "[GTA G9A T19C C55G]", "tRNA 5' processing efficiency": 0.13}, {"variant": "GGCTCGTTGGTCTATGGGTATGATTCTCGCTTAGGGTGCGAGAGGTCCCGGGACCTAATCCCGGACGAGCCC", "note": "[GTA G15T T53A T54C]", "tRNA 5' processing efficiency": 0.33}, {"variant": "GGCTCGTTGGTCTAGTGGTTTGATTCTCGCTTAGGGTGCGAGAGGTCCCGGGTGCGCATCCCGGACGAGCCC", "note": "[TGC A20T T54G]", "tRNA 5' processing efficiency": 0.2}, {"variant": "GGCTCGTTGGTCTATTGGTATGATTCTCGCTTAGGGTGCGAGAGGTCCCGGGTTATATTCCCGGACGAGCCC", "note": "[TTA G15T C55A A58T]", "tRNA 5' processing efficiency": 0.33}, {"variant": "GGCTCGTTGGTCTATGAGTATGATTCTCGCTTAGGGTGCGAGAGGTCCCGGGTTAGGATCCCGGACGAGCCC", "note": "[GGG G15T G17A C55A]", "tRNA 5' processing efficiency": 0.08}, {"variant": "GGCTCGTTGGTCTAGCGTTATGATTCTCGCTTAGGGTGCGAGAGGTCCCGGGCTTGGGTCCCGGACGAGCCC", "note": "[CGG G18T T53C C55T A58G]", "tRNA 5' processing efficiency": 0.25}, {"variant": "GGCTCGTTGGTCTGGGGGTATGATTCTCGCTTAGGGTGCGAGAGGTCCCGGGCTCTAATCCCGGACGAGCCC", "note": "[GTA A14G T53C]", "tRNA 5' processing efficiency": 0.33}, {"variant": "GGCTCGTTGGTCTAATGGTATGATTCTCGCTTAGGGTGCGAGAGGTCCCGGGTCCTAATCCCGGACGAGCCC", "note": "[TTA G15A T54C]", "tRNA 5' processing efficiency": 0.17}, {"variant": "GGCTCGTTGGTCTGGGGCTATGATTCTCGCTTAGGGTGCGAGAGGTCCCGGGTTCTAATCCCGGACGAGCCC", "note": "[GTA A14G G18C]", "tRNA 5' processing efficiency": 0.2}, {"variant": "GGCTCGTTAGTCTCGGGGTATGATTCTCGCTTAGGGTGCGAGAGGTCCCGGGTTCTAATCCCGGACGAGCCC", "note": "[GTA G9A A14C]", "tRNA 5' processing efficiency": 0.05}, {"variant": "GGCTCGTCGGTCTAGGCTTATGATTCTCGCTTAGGGTGCGAGAGGTCCCGGGCTCGCATCCCGGACGAGCCC", "note": "[GGC T8C G17C G18T T53C]", "tRNA 5' processing efficiency": 0.4}, {"variant": "GGCTCGTTGGTCTAGGGGTATGATTCTCGCTTAGGGTGCGAGAGGTCCCGGGTGCGTATCCCGGACGAGCCC", "note": "[GGT T54G]", "tRNA 5' processing efficiency": 0.33}, {"variant": "GGCTCGTTGGTCTAGGAGCATGATTCTCGCTTAGGGTGCGAGAGGTCCCGGGTTGTAATCCCGGACGAGCCC", "note": "[GTA G17A T19C C55G]", "tRNA 5' processing efficiency": 0.25}]}]}
